Reference: publication PMC13248703
No constants are given. Whether binding was seen depends on the method and setting. Binding seen in cells or lysates may run through a third protein. Some results given as binding are weak or reduced against the parent protein; the word gives no strength.

Chains of the proteins cited; added tags and fusions are not shown. Lines headed by an entry give the natural chain unless they say otherwise; changes in a name come on top. A line that says so, or that is headed by a name, gives the form on record, which may keep a tag or linker. Residues count along the entry.
VCP ΔC (deletion of amino acids 763 to 806) (P55072, residues 1-762): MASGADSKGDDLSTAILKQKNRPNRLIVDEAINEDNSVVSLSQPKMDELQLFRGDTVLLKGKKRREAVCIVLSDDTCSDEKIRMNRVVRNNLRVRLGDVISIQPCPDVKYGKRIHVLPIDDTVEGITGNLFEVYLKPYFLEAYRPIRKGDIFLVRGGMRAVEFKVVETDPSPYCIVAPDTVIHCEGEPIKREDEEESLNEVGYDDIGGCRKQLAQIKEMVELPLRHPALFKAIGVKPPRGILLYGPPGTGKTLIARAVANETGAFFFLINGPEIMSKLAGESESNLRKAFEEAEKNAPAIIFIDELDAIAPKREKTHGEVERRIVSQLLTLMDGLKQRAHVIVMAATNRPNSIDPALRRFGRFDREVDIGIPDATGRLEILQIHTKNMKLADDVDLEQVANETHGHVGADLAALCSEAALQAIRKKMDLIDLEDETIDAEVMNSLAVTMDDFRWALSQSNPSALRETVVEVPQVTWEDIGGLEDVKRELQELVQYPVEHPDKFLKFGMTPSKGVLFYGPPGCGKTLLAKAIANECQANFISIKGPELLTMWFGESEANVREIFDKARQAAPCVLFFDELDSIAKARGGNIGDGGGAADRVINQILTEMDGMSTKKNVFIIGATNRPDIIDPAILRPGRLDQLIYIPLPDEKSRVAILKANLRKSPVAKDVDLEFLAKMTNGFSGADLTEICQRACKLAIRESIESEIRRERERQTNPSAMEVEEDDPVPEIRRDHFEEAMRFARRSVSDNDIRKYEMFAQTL
VCP ΔN (deletion of amino acids 1 to 184) (P55072, residues 185-806): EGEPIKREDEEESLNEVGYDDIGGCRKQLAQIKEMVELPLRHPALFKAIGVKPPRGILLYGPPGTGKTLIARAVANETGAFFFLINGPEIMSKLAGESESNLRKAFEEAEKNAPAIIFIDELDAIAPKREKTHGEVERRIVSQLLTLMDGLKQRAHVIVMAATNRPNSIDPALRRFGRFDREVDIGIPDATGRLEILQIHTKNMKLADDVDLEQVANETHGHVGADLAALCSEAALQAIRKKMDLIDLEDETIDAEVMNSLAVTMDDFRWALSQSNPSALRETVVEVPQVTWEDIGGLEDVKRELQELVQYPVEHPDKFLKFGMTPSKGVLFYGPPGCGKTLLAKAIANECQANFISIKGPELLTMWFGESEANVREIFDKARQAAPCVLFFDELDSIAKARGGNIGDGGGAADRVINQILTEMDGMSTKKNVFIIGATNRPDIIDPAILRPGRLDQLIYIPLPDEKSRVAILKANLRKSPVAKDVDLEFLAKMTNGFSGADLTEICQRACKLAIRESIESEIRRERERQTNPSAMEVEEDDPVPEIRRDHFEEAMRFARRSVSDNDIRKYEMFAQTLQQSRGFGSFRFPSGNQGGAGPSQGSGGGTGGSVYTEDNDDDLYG
VCP ΔD1 (deletion of amino acids 210 to 463) (P55072, form named): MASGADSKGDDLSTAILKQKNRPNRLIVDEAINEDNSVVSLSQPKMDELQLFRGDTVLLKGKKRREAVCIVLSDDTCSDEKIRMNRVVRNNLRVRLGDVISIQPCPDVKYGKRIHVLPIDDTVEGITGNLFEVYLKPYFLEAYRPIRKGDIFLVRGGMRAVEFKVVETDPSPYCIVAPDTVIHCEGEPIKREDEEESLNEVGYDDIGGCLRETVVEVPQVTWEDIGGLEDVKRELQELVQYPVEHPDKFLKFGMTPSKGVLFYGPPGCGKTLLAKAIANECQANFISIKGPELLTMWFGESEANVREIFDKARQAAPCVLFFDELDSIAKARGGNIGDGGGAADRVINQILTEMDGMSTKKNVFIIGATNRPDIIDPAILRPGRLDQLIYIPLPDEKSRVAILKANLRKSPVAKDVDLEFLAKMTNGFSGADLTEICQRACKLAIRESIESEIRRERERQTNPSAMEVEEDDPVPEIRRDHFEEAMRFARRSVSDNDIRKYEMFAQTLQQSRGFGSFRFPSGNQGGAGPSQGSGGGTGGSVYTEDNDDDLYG
VCP ΔD2 (deletion of amino acids 482 to 762) (P55072, form named): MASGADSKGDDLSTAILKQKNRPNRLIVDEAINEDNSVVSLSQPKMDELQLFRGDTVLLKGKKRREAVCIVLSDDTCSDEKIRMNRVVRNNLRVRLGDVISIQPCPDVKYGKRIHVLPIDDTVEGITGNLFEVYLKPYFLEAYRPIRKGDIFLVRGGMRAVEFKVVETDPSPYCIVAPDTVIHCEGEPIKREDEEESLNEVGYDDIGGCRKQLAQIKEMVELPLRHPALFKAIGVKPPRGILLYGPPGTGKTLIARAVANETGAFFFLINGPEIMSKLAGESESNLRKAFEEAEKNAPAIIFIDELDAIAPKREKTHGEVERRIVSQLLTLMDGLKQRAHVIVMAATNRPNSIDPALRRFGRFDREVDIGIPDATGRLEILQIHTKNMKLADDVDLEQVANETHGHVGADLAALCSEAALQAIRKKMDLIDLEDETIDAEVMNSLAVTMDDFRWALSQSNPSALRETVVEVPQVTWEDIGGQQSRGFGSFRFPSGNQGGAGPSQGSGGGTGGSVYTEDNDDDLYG
UniProt O95139: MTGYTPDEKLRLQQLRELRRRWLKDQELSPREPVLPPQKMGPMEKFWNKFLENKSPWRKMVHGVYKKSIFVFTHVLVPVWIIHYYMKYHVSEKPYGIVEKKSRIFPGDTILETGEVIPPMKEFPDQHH

Assays:
[1] = molecular target: VCP ΔC (deletion of amino acids 763 to 806) (human) (UniProt P55072); assay: co-IP; cells with plasmids of VCP WT or truncation mutants (ΔN, ΔD1, ΔD2, ΔC); SIA-IgG and NDUFB6 detected by western blot; RIPA lysate, protein A/G beads
[2] = molecular target: VCP ΔD1 (deletion of amino acids 210 to 463) (human) (UniProt P55072); assay: as above
[3] = molecular target: VCP ΔD2 (deletion of amino acids 482 to 762) (human) (UniProt P55072); assay: as above
[4] = molecular target: VCP ΔN (deletion of amino acids 1 to 184) (human) (UniProt P55072); assay: as above
[5] = molecular target: wild-type VCP (plasmid, 806 amino acids) (human) (UniProt P55072); assay: as above
[6] = molecular target: valosin-containing protein (human (endogenous in OSCC cells)) (UniProt P55072); assay: co-IP; endogenous proteins of OSCC cells; RIPA lysate with protease inhibitors, primary antibody overnight at 4 °C, protein A/G beads 2 h at 4 °C, western blot; mIgG and RIgG as controls; also done with anti-VCP on cells with or without SIA-IgG knockdown (VCP-NDUFB6 binding weakened by the knockdown)

Measured: binding

NADH:ubiquinone oxidoreductase subunit B6 (from UniProt O95139 1-128)
binds: all assays above
